# Reference: PubChem BioAssay AID1439 (NMMLSC, 2008)
# Sequences of proteins named here, by UniProt entry; tags and fusion partners are left off.
# UniProt P09471, whole entry, looked up: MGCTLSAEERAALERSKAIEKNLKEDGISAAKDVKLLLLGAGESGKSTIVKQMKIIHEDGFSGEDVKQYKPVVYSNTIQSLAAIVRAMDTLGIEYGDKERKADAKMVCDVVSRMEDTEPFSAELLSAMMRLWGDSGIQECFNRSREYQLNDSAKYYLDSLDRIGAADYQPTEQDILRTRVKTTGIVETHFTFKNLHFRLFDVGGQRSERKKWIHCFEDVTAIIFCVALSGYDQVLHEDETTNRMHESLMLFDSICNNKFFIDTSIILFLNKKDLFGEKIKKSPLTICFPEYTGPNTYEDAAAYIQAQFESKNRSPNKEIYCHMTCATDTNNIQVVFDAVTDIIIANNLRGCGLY
# Screen size: about 220,000 compounds; about 770 (0.35%) were called active. This list was built around the results that the source calls inconclusive (neither active nor inactive); the mix of calls is not that of the screen. Cut-off read from the data, not from the text of the source: active = binding response below about 49% or above about 150%; inconclusive = no clear call, values can overlap the other calls; inactive = in between.
# Target: Guanine nucleotide-binding protein G(o) subunit alpha (Homo sapiens) (UniProt P09471)
# Assay: RGS7-Galphao binding modulators, primary screen, biochemical, multiplexed bead flow cytometry (AID 1439);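 note: fluorescent Galphao held in activated GDP-AlF4 state binding bead-coupled RGS7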
# Settings: at 10 µM, actives lie on both sides
row,Structure (SMILES),binding response (% of control)
1,CCc1cccc(CC)c1NC(=O)c1ccc(-n2cncn2)nc1,inactive: 99.6%
2,O=C(O)c1cnc2[nH]c3ccccc3n2c1=O,inconclusive: 132%
3,Cn1cccc1C(=O)C(=O)Nc1ccc(F)c(F)c1,inactive: 100%
4,CCn1nc(C)c(CNC(=O)Nc2ccccc2C(=O)OC)c1C,inactive: 108%
5,COc1ccc(N(C)C(=O)c2cc3c(s2)-c2c(C)cccc2OC3)c(OC)c1,inconclusive: 112%
6,Cc1cc(C)n(-c2cc(N3CCN(C(=O)c4cccc(Br)c4)CC3)ccc2[N+](=O)[O-])n1,inactive: 102%
7,COc1ccc(CC(=O)O/N=C(\N)Cc2ccc([N+](=O)[O-])cc2)cc1,inconclusive: 84%
8,C=CCn1c(=NC(=O)c2cccs2)sc2cccc(OC)c21,inconclusive: 81.6%
9,CCOC(=O)Cn1nc(C)c(NC(=O)COc2ccc([N+](=O)[O-])c(C)c2)c1C,inactive: 98%
10,O=C(CCOc1ccccc1)Nc1nnc(-c2ccc3c(c2)OCCO3)o1,inconclusive: 110%
11,CC1CCC(NC(=O)CN(C)S(=O)(=O)c2cccc3cccnc23)CC1 (stereo unspecified),inconclusive: -99.8%
12,COc1cc(/C(C)=N/NC(=O)CSc2nnc(C)s2)ccc1O,inconclusive: 78.7%
13,Nc1nc(SCC(=O)NCCO)nc2sc3c(c12)CCCC3,inconclusive: 105%
14,COC(C[C@@H]1O[C@@H]1[C@@H](O)COCc1ccccc1)OC,inconclusive: 123%
15,CC(C)(C)C1CCC(=NNC(=S)Nc2cccnc2)CC1 (stereo unspecified),inconclusive: 90%
16,CCCNC(=O)c1ccc2c(=O)c(O)c(C)[nH]c2c1,inconclusive: 104%
17,COC(=O)/C=C1\S/C(=N/NC(=O)c2ccc(OC)cc2)NC1=O,inconclusive: 105%
18,CCOC(=O)C1(CC2CCCCO2)CCN(Cc2cc3ccccc3[nH]2)CC1 (stereo unspecified),inactive: 96.9%
19,CCCCC1=CC2=C(c3ccco3)C(=O)C(C)(OC(=O)c3ccc(OC)cc3)C(=O)C2=CN1CCOC (stereo unspecified),inconclusive: 15.2%

row,Structure (SMILES),binding response (% of control)
1,OCCN1CCN(c2cc(C(F)(F)F)nc3c(F)cccc23)CC1,inconclusive: 242%
2,CC12CCC(C(=O)NNc3ccccc3)(OC1=O)C2(C)C (stereo unspecified),inconclusive: 111%
3,Cn1c(SCC(=O)NNC(=S)Nc2ccccc2)nnc1-c1ccccc1,inconclusive: 112%
4,CN=C(Nc1cccc(Cl)c1)SC1CC(=O)N(c2ccc(OC)cc2)C1=O (stereo unspecified),inactive: 105%
5,COc1ccc(CC(NC(C)=O)C(=O)NC2CCN(C(=O)c3ccc([N+](=O)[O-])cc3)CC2)cc1OC (stereo unspecified),inconclusive: 136%
6,CC(C)CNc1c(N)n(CC(C)C)c(=O)[nH]c1=O,inconclusive: 111%
7,O=S(=O)(CCN1C=CC(C(F)(F)F)=NCC1)c1ccc(F)cc1,inconclusive: -54.4%
8,CCOc1cccc(C(=O)NC(=S)Nc2ccc(N3CCN(CC)CC3)cc2)c1,inconclusive: 91.2%
9,COc1ccc(NC(=O)c2cn(-c3ccccc3)nc2SC)cc1,inconclusive: -9.3%
10,CCN(CC)CCNC(=O)c1ccc2c(c1NCCO)C(=O)c1ccccc1C2=O,inconclusive: 79%
11,COc1ccc(NC(=O)Nc2nnc(C(C)(C)C)s2)cc1,inconclusive: 65.6%
12,CCOC(=O)Cc1csc(NC(=O)C(C)c2ccc([N+](=O)[O-])cc2)n1 (stereo unspecified),inactive: 97.8%
13,CCOC(=O)N1CCN(c2c(N3CCN(c4ccc(F)cc4)CC3)c(=O)c2=O)CC1,inconclusive: 23.4%
14,Cc1c(CCOC(=O)c2cc([N+](=O)[O-])cc([N+](=O)[O-])c2)sc[n+]1CC(=O)c1ccccc1,inconclusive: 110%
15,CCCCCOc1ccccc1C(=O)NCCCCCC(=O)O,inconclusive: 91%
16,CCCCOc1ccc(C(=S)N2CCC(C(N)=O)CC2)cc1,inconclusive: 103%
17,Cc1cc(NCc2cccnc2)no1,inconclusive: 115%
18,O=C(CP(=O)(c1ccccc1)c1ccccc1)Nc1cccc(CP(=O)(c2ccccc2)c2ccccc2)c1,inconclusive: 140%
19,N#C/C(=C/c1ccc(N2CCOCC2)o1)C(=O)Nc1ccccc1,active: 198% [activator]

# 2 consecutive records already listed, for reference:
row,Structure (SMILES),binding response (% of control)
17,Cc1cc(NCc2cccnc2)no1,inconclusive: 115%
18,O=C(CP(=O)(c1ccccc1)c1ccccc1)Nc1cccc(CP(=O)(c2ccccc2)c2ccccc2)c1,inconclusive: 140%

# Further records follow.

row,Structure (SMILES),binding response (% of control)
1,O=C(CC1C(=O)NCCN1C(=O)Nc1ccccc1)Nc1ccc2c(c1)OCCO2 (stereo unspecified),inactive: 108%
2,CC1Cc2ccccc2N1C(=O)CN1C(=O)C(=O)N(Cc2ccccc2)C1=O (stereo unspecified),inactive: 95.9%
3,Cc1ccc(Nc2nc(COC(=O)C3CC3)cs2)cc1,inconclusive: 132%
4,CCCn1c(SCC(=O)NCCc2ccccc2)nnc1C(C)C,inconclusive: 109%
5,O=C(NC1CC1)C1=C[C@@H](c2c[nH]c3ccccc23)C[C@@H](OCc2ccc(CO)cc2)O1,inconclusive: 105%
6,O=C(C(=O)N1CCOCC1)c1cn(CCOc2ccccc2)c2ccccc12,inconclusive: 110%
7,COc1ccccc1N1CCN(C(=O)CSc2nc(N)cc(=O)[nH]2)CC1,active: 277% [activator]
8,N#C/C(=C\N1CCN(Cc2ccc3c(c2)OCO3)CC1)c1nc2ccccc2s1,inactive: 104%
9,NS(=O)(=O)c1ccc(CCNC(=O)c2ccc3ccccc3n2)cc1,inconclusive: 112%
10,Cc1ccccc1OCC(=O)NNC(=O)CSc1nc(N)cc(N)n1,inconclusive: 84.4%
11,O=C(CN(C(=O)c1ccc(Cl)cc1)N1C(=O)C2C3C=CC(C3)C2C1=O)c1cccs1 (stereo unspecified),inconclusive: 112%
12,COc1cc(OC)cc(C(=O)NNC(=S)NCc2ccco2)c1,inconclusive: 117%
13,O=C(NCc1nc2ccccc2[nH]1)C1=C[C@@H](C2CCCCC2)C[C@@H](OCCCCO)O1,inconclusive: 124%
14,CCOC(=O)NC(=O)COC(=O)CNC(=O)c1ccc(OCC)c(OCC)c1,inconclusive: 104%
15,O=C(N/N=C/c1ccccn1)c1cc(-c2ccccc2)nc2ccccc12,inconclusive: 150%
16,CCOC(=O)Cn1cnc2c(sc3nc(C)cc(C)c32)c1=O,inconclusive: -134%
17,Fc1cccc(NC(=S)NCCN2CCOCC2)c1,inactive: 99.4%
18,C=CCOc1ccc(/C=C2\SC(=S)N(N3CCOCC3)C2=O)cc1,inconclusive: -149%

# Exported with bars between the fields: two of the compounds above.
row | Structure (SMILES) | binding response (% of control)
16 | CCCNC(=O)c1ccc2c(=O)c(O)c(C)[nH]c2c1 | inconclusive: 104%
17 | COC(=O)/C=C1\S/C(=N/NC(=O)c2ccc(OC)cc2)NC1=O | inconclusive: 105%
